US20050130265A1
Results are given in words; binding and its absence hold for the method and conditions named. Some results given as binding are weak or reduced against the parent protein; the word gives no strength. Tags and fused reporters may be left off the sequences shown.

B1: Aio-500 prey (B42 transcriptional activation domain fused to the C-terminal 149 amino acids of Aiolos) (protein, not shown: large carriers)
chain: EKKRILLPEKILPSERGLSPNNSAQDSTDTDSNHEDRQHLYQQSHVVLPQARNGMPLLKEVPRSFELLKPPPICLRDSIKVINKEGEVMDVFRCDHCHVLFLDYVMFTIHMGCHGFRDPFECNMCGYRSHDRYEFSSHIARGEHRAMLK
B2: Aio-800 prey (B42 transcriptional activation domain fused to the entire coding sequence of the C-terminal exon of Aiolos) (protein, not shown: large carriers)
chain: EKRHCFDANYNPGYMYEKENEMMQTRMMDQAINNAISYLGAEAFRPLVQTPPAPTSEMVPVISSVYPIALTRADMPMGAPQEMEKKRILLPEKILPSERGLSPNNSAQDSTDTDSNHEDRQHLYQQSHVVLPQARNGMPLLKEVPRSFELLKPPPICLRDSIKVINKEGEVMDVFRCDHCHVLFLDYVMFTIHMGCHGFRDPFECNMCGYRSHDRYEFSSHIARGEHRAMLK

Columns and labels:
[1] = molecular target: Aio-500 bait (C-terminal 149 amino acids of Aiolos fused in frame to the LexA DNA binding domain in pLex202) (mouse); test: yeast two-hybrid
[2] = molecular target: Aio-500 bait (C-terminal 149 amino acids of Aiolos fused in frame to the LexA DNA binding domain in pLex202) (mouse); test: yeast two-hybrid, B42 prey against LexA bait, rate of blue colour on X-gal plates

| Binder | binding [1] | binding [2] |
| --- | --- | --- |
| B1 | binds | binds |
| B2 | binds | binds |
